Values from PubChem BioAssay AID743454 (Peter MacCallum Cancer Centre, 2014)
In all, the deposit lists about 18,000 reagents; below is a part drawn at random. Of all reagents, 450 (2.5%) are marked active. 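Single biological run; no consistent viability z cut-off exists, so the class columns, not z-scores, define the calls.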 Unmarked entries are inactive.

Test: 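Genes whose loss kills vorinostat-resistant colon cancer cells under vorinostat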 (primary screen)
System: human HCT116-VR colon cancer cells, selected for vorinostat resistance
Reagent: siRNA pool against human genes, 40 nM siRNA pool
Duration: vorinostat for 24 h, read-out about 72 h after transfection
Treatment: vorinostat at 2.5 µM final
Measurement: 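Cell viability by CellTiter-Fluor and caspase 3/7 activity by luminescence, each scaled to mock wells per plate, duplicates averaged, then robust z-scored over all plates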
Scale: viability robust z-score: higher = more viable cells than screen typical; caspase robust z-score: higher = more caspase 3/7 activity than screen typical
Active means: 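a knock-down is a hit when classed RV1 or RV2 for lowered viability, or CA1 or CA2 for caspase activation; those lethal without drug were dropped; hits were retested singly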

CYB5R3 — viability hit class: no change; caspase hit class: no change; viability robust z-score: -1.18; caspase robust z-score: 1.27
TRIM33 — viability hit class: no change; caspase hit class: no change; viability robust z-score: 0.18; caspase robust z-score: -0.66
ANG — viability hit class: no change; caspase hit class: no change; viability robust z-score: 1.22; caspase robust z-score: 3.8
PIAS1 — viability hit class: no change; caspase hit class: no change; viability robust z-score: 1.35; caspase robust z-score: -0.15
OR2T33 — viability hit class: no change; caspase hit class: no change; viability robust z-score: -0.52; caspase robust z-score: -0.96
CD177 — viability hit class: no change; caspase hit class: no change; viability robust z-score: -0.34; caspase robust z-score: -0.84
SGK3 — viability hit class: no change; caspase hit class: no change; viability robust z-score: 1.17; caspase robust z-score: -0.18
SCOC — viability hit class: no change; caspase hit class: no change; viability robust z-score: 0.23; caspase robust z-score: -0.45
TRIM6 — viability hit class: no change; caspase hit class: no change; viability robust z-score: -0.99; caspase robust z-score: -1.61
PGM2L1 — viability hit class: no change; caspase hit class: no change; viability robust z-score: -1.15; caspase robust z-score: 0.14
ARL5A — viability hit class: no change; caspase hit class: no change; viability robust z-score: -0.88; caspase robust z-score: 4.46
INHBC — viability hit class: no change; caspase hit class: no change; viability robust z-score: 0.05; caspase robust z-score: -0.16

Laid out differently: entries from further up.
Gene,viability hit class,caspase hit class,viability robust z-score,caspase robust z-score
SGK3,no change,no change,1.17,-0.18
SCOC,no change,no change,0.23,-0.45
